Data reported in patent US20220160802A1, “METHODS AND COMPOSITIONS FOR PROMOTING HEALTH IN A SUBJECT” (COMMONWEALTH SCIENTIFIC AND INDUSTRIAL RESEARCH ORGANISATION, priority 2019, published 2022).

Assay: Untargeted LC-MS metabolite analysis of fermented and non-fermented broccoli puree
Details: fermented vs non-fermented broccoli puree

Molecule | FC
C=C(CC[C@@H](C)[C@H]1CC[C@@]2(C)[C@@H]3CC[C@H]4[C@H](C)C(=O)CC[C@@]45C[C@@]35CC[C@]12C)C(C)C [cycloeucalenone] | 3.4926
Cc1cn([C@H]2C[C@H](O)[C@@H](COP(=O)(O)OP(=O)(O)O)O2)c(=O)[nH]c1=O [dTDP] | 5.6526
Cc1cn([C@H]2C[C@H](O)[C@@H](COP(=O)(O)O)O2)c(=O)[nH]c1=O [dTMP] | 6.9501
COc1cc(CCCO)ccc1O[C@@H]1O[C@H](CO)[C@@H](O)[C@H](O)[C@H]1O [dihydroconiferyl alcohol glucoside] | 5.6248
C=CC1=CC[C@@H]2[C@H](CC[C@@H]3C(C)(C)CCC[C@@]23C)[C@@H]1C [ent-cassa-12,15-diene] | 0.3328
C=C(CO)[C@H]1C/C=C(\C)CC/C=C(\C)CC1 [germacra-110,4,1113-trien-12-ol] | 0.2351
O=S(=O)(O)ON=C(Cc1c[nH]c2ccccc12)S[C@@H]1O[C@H](CO)[C@@H](O)[C@H](O)[C@H]1O [glucobrassicin] | 26.746
CSCCC/C(=N\OS(=O)(=O)O)S[C@@H]1O[C@H](CO)[C@@H](O)[C@H](O)[C@H]1O [glucoiberverin] | 0.08732
O=C(OCCC/C(=N\OS(=O)(=O)O)S[C@@H]1O[C@H](CO)[C@@H](O)[C@H](O)[C@H]1O)c1ccccc1 [glucomalcommin] | 4.1855
C[S+]([O-])CCCC/C(=N\OS(=O)(=O)O)S[C@@H]1O[C@H](CO)[C@@H](O)[C@H](O)[C@H]1O (stereo partly drawn) [glucoraphanin] | 27 and 27.475
O=S(=O)(O)ON=C(Cc1ccccc1)S[C@@H]1O[C@H](CO)[C@@H](O)[C@H](O)[C@H]1O [glucotropeolin] | 0.4795
NCC(=O)O [glycine] | 0.2359
O=CC(=O)O [glyoxylate] | 16.835
O=C(O)Cc1cc(O)ccc1O [homogentisate] | 7.6608
O=C1C=c2cc[nH]c2=CC1=O [indole-5,6-quinone] | 2.6937
S=C=NCc1c[nH]c2ccccc12 [indolylmethylisothiocyanate] | 7.7651
COc1cc(-c2oc3cc(O)cc(O)c3c(=O)c2O)cc(O)c1O [laricitrin] | 0.4281
CCCCCCCCCCCC(=O)O [laurate] | 0.3396
O=C(O)/C=C/c1cccc(O)c1 [m-Coumaric acid] | 2.187
O=C(O)CC(=O)O [malonate] | 9.0975
Nc1nc2c(c(=O)[nH]1)N[C@H]1C(S)=C(S)[C@@H](COP(=O)(O)O)O[C@H]1N2 [molybdopterin] | 149.51

Molecule | FC
CCCCCc1cc(O)cc(O)c1 [olivetol] | 0.1309
O=C(O)c1cc(=O)[nH]c(=O)n1[C@@H]1O[C@H](COP(=O)(O)O)[C@@H](O)[C@H]1O [orotidine 5′-phosphate] | 14.737
O=C(/C=C/c1ccc(O)cc1)Cc1cc(O)cc(=O)o1 [p-coumaroyltriacetic acid lactone] | 0.1844
COc1ccc(Cc2nccc3cc(OC)c(OC)cc23)cc1OC [papaverine] | 0.3665
NCCCN [propane-1,3-diamine] | 5.5793
Cc1ncc(COP(=O)(O)O)c(C=O)c1O [pyridoxal 5′-phosphate] | 7.0734
Cc1ncc(CO)c(C=O)c1O [pyridoxal] | 3.0278
O=C(O)C1CSC(=S)N1 (stereo not drawn) [raphanusamate] | 5.5593
O=C(O)c1ccccc1O [salicylate] | 13.59
CC1(C)C[C@@H](O)[C@]2(C)CC[C@]3(C)C(=CC[C@@H]4[C@@]5(C)CC[C@H](O)[C@](C)(CO)[C@@H]5CC[C@]43C)[C@@H]2C1 [soyasapogenol B] | 0.3584
C/C(=C\CNc1ncnc2nc[nH]c12)CO [trans-zeatin] | 0.3921
O=c1[nH]c(=O)c2[nH]c(=O)[nH]c2[nH]1 [urate] | 7.2329
C=CC(O)CC(=NOS(=O)(=O)O)S[C@@H]1O[C@H](CO)[C@@H](O)[C@H](O)[C@H]1O (stereo partly drawn) [xi-progoitrin] | 5.091
--Epicatechin 3-O-gallate | 2.4481
E,E-geranyllinalool | 0.01825
Hydroxycaffeic acid | 0.4323
indole-3-acetyl-glutamate | 0.1547
indole-3-acetyl-glutamine | 0.2028
indole-3-acetyl-phenylalanine | 17.44
monodehydroascorbate radical | 2.0677
pheophorbide a | 6.3398

Where “and” joins values, the source holds several entries; their conditions need not be identical. Equal values may be shown once.
